For 26 molecules, T/C and survivor count results are on record in PubChem BioAssay AID200 (DTP/NCI, 2004).

This assay relates to B6C3F1 mice, B16 melanoma ip, median survival T/C. Briefly: NCI In Vivo Anticancer Drug Screen. Data for tumor model B16 Melanoma (intraperitoneal) in B6C3F1 mice. Particulars: T/C endpoint: median survival time, higher T/C = longer survival. The essentials:
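Tumor-bearing mice received test compound; a separate group got vehicle only. Survival was then compared, with results reported as treated over control.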

[1] abbreviates: dose: 50.0 mg/kg/injection, schedule: Q01DX009 (ip), vehicle: saline.
The mark [2] stands for this setting: dose: 200.0 mg/kg/injection, schedule: Q01DX009 (ip), vehicle: saline with Tween-80.
[3] abbreviates: dose: 400.0 mg/kg/injection, schedule: Q01DX009 (ip), vehicle: saline with Tween-80.
The mark [4] stands for this setting: dose: 100.0 mg/kg/injection, schedule: Q01DX009 (ip), vehicle: saline with Tween-80.
[5] abbreviates: dose: 50.0 mg/kg/injection, schedule: Q01DX009 (ip), vehicle: saline with Tween-80.
The mark [6] stands for this setting: dose: 400.0 mg/kg/injection, schedule: Q01DX009 (ip), vehicle: saline.
Where [7] appears, read: dose: 400.0 mg/kg/injection, schedule: Q01DX009 (ip), vehicle: Klucel (hydroxypropylcellulose) (HPC).
The mark [8] stands for this setting: dose: 50.0 mg/kg/injection, schedule: Q01DX009 (ip), vehicle: Klucel (hydroxypropylcellulose) (HPC).
[9] abbreviates: dose: 200.0 mg/kg/injection, schedule: Q01DX009 (ip), vehicle: Klucel (hydroxypropylcellulose) (HPC).

The structures appear in SMILES notation. The list is a part of this screen's results and no random one: it gathers tests that were run many times, whatever their T/C, doses with no T/C, and many T/C values between a quarter and a half above the control. Other doses and runs of a compound stand elsewhere. T/C gives the treated animals as a percentage of the vehicle group. Some entries give survivors of the animals treated and no T/C: the source holds a T/C of zero for them, seemingly a mark for toxic or unscored doses. Some doses without a T/C left all or most animals alive at the check, yet need not have been tolerated: the source hardly ever lists a survival T/C far under the control, and the zero likely stands for such cases as well. Survivors were counted at the toxicity check, usually on the fifth day, unless a day is given; later deaths do not show. Schedules are NCI's codes, read here as Q, the interval in days (D) or hours (H), X, the number of doses. Some doses were run more than once; the values are given in rising order. Where survival is the endpoint, this PubChem deposit counts one and a half times the control or more as active, and values a quarter to a half above the control carry no call in these data; other NCI protocols may use other cut-offs. Some T/C values carry the count of animals alive at the toxicity check (mostly the fifth day); without a count, all were alive then. Where a SMILES comes first, the peptide text is derived from it. [ ]: non-standard residue; d: D form. The star is where a group is joined. Nle = CCCC[CH](N)C(=O)O; Cbz = O=C(OCc1ccccc1)*; Nva = CCC[CH](N)C(=O)O

Take `O=c1c(O)c(O)c1=O.[NH2-].[NH2-].[NH2-].[NH2-].[NH2-].[Ru+5]`: the T/C runs as follows: (dose: 6.25 mg/kg/injection, schedule: Q01DX009 (ip), vehicle: saline) 126 % of control; (dose: 17.36 mg/kg/injection, schedule: Q01DX009 (ip), vehicle: saline) 139 % of control; (dose: 28.94 mg/kg/injection, schedule: Q01DX009 (ip), vehicle: saline) 148 % of control [8 of 10 alive]. For the same molecule, the survivor count (dose: 12.5 mg/kg/injection, schedule: Q01DX009 (ip), vehicle: saline) was 6 of 10 and the survivor count under setting [1] was 0 of 10.
`O=C(C/C(=N\C(=S)Nc1cc(C(F)(F)F)ccc1Cl)NO)N1CCCC1`: the survivor count is reported as 5 of 10 under setting [2] and 2 of 10 under setting [3].
Take `Cc1ccc(NCC2(/N=C/c3ccccc3)OC(CO)C(O)C2O)cc1` (centres undefined): the T/C is, setting by setting: (dose: 177.0 mg/kg/injection, schedule: Q01DX009 (ip), vehicle: Klucel (hydroxypropylcellulose) (HPC)) 141 % of control; (dose: 266.0 mg/kg/injection, schedule: Q01DX009 (ip), vehicle: Klucel (hydroxypropylcellulose) (HPC)) 142 % of control. Where the note is “dose: 600.0 mg/kg/injection, schedule: Q01DX009 (ip), vehicle: Klucel (hydroxypropylcellulose) (HPC)”, the survivor count is 3 of 10.
Turning to `C1OC1C1CO1` (centres undefined), the T/C (dose: 10.0 mg/kg/injection, schedule: Q01DX009 (ip), vehicle: saline) was 127 % of control. For the same molecule, the survivor count by setting is: (dose: 20.0 mg/kg/injection, schedule: Q01DX009 (ip), vehicle: saline) 2 of 10; (dose: 40.0 mg/kg/injection, schedule: Q01DX009 (ip), vehicle: saline) 0 of 10 and 5 of 10.
Consider `CC#CCOCC(O)CCl` (centres undefined), for which the survivor count (dose: 400.0 mg/kg/injection, schedule: Q01DX009 (ip), vehicle: suspension in saline) is given as 10 of 10.
On to `O=C(Nc1nncs1)c1ccncc1`, for which the survivor count is 10 of 10 under setting [4], 9 of 10 under setting [2] and 7 of 10 under setting [3].
In the case of `CC(NC(=O)c1ccccc1)C(=O)O` (centres undefined), the survivor count is reported as 6 of 6 (dose: 160.0 mg/kg/injection, schedule: Q01DX009 (ip), vehicle: saline with Tween-80); 6 of 6 (dose: 320.0 mg/kg/injection, schedule: Q01DX009 (ip), vehicle: saline with Tween-80); 6 of 6 (dose: 640.0 mg/kg/injection, schedule: Q01DX009 (ip), vehicle: saline with Tween-80).
In the case of `O=NN(CCF)C(=O)NCCO`, for the setting “dose: 7.5 mg/kg/injection, schedule: Q01DX001 (ip), vehicle: saline”, the T/C is 128 % of control. Moreover, the survivor count (dose: 120.0 mg/kg/injection, schedule: Q01DX001 (ip), vehicle: saline) is recorded as 4 of 9 on day 6.
Consider `NC(CSC(c1ccccc1)(c1ccccc1)c1ccccc1)C(=O)O` (centres undefined), for which the T/C (dose: 8.0 mg/kg/injection, schedule: Q01DX009 (ip), vehicle: Klucel (hydroxypropylcellulose) (HPC)) is 128 % of control. For the same molecule, the survivor count is recorded as 10 of 10 (dose: 32.0 mg/kg/injection, schedule: Q01DX009 (ip), vehicle: Klucel (hydroxypropylcellulose) (HPC)); 10 of 10 (dose: 64.0 mg/kg/injection, schedule: Q01DX009 (ip), vehicle: Klucel (hydroxypropylcellulose) (HPC)); 9 of 10 (dose: 128.0 mg/kg/injection, schedule: Q01DX009 (ip), vehicle: Klucel (hydroxypropylcellulose) (HPC)).
For `N=c1ccn2c(n1)OC1C(O)C(CO)OC12` (centres undefined), the T/C (dose: 600.0 mg/kg/injection, schedule: Q01DX009 (ip), vehicle: saline) is 127 and 134 % of control. The survivor count (dose: 1200.0 mg/kg/injection, schedule: Q01DX009 (ip), vehicle: saline) was 10 of 10.
In the case of `Cc1[nH]ccc(=O)c1O`, the survivor count (dose: 512.0 mg/kg/injection, schedule: Q01DX009 (ip), vehicle: saline with Tween-80) was 7 of 10.
Turning to `Nc1nc(N)c2c(Cl)c(CNc3ccc(Cl)c(Cl)c3)ccc2n1`, under “dose: 25.0 mg/kg/injection, schedule: Q01DX009 (ip), vehicle: saline with Tween-80”, the T/C is 131 % of control. Besides, the survivor count runs as follows: under setting [5], 10 of 10; under setting [4], 10 of 10.
`N=c1nc2n(cc1F)[C@@H]1O[C@H](CO)[C@@H](O)[C@@H]1O2`: the T/C under setting [6] is 131 % of control. Besides, the survivor count is 9 of 10 (dose: 800.0 mg/kg/injection, schedule: Q01DX009 (ip), vehicle: Klucel (hydroxypropylcellulose) (HPC)); 9 of 10 and 10 of 10 (dose: 800.0 mg/kg/injection, schedule: Q01DX009 (ip), vehicle: saline).
Regarding `Cc1oc2c(C)c3oc(=O)cc(C)c3cc2c1CCl`, the survivor count was 9 of 10 (dose: 12.5 mg/kg/injection, schedule: Q01DX009 (ip), vehicle: saline with Tween-80); 8 of 10 and 10 of 10 under setting [5]; 0 of 10, 8 of 10, 9 of 10 under setting [4]; 6 of 10 under setting [2]; 0 of 10 under setting [3].
Turning to `O=C(C1CO1)C(Cl)(Cl)Cl` (centres undefined), the survivor count reads like this: under setting [1], 4 of 10; (dose: 100.0 mg/kg/injection, schedule: Q01DX009 (ip), vehicle: saline) 0 of 10; (dose: 200.0 mg/kg/injection, schedule: Q01DX009 (ip), vehicle: saline) 0 of 10.
Regarding `CCCCC(NC(=O)C(CCC)NC(=O)OCc1ccccc1)C(=O)O` (centres undefined) (Cbz-[Nva]-[Nle]-OH; configuration not given here), the survivor count under setting [7] is 5 of 10.
As for `[N-]=[N+]=[N-]`, the survivor count (dose: 24.0 mg/kg/injection, schedule: Q01DX009 (ip), vehicle: saline) is listed as 0 of 10.
As for `Nc1ccc2ccc(NS(=O)(=O)N3CCCCC3)cc2c1`, under setting [3], the survivor count is reported as 8 of 10.
Regarding `O=C(O)/C=C/C(=O)Nc1ccc(Cl)c(Cl)c1`, the T/C is 94, 97, 106, 142 % of control (dose: 12.5 mg/kg/injection, schedule: Q01DX009 (ip), vehicle: Klucel (hydroxypropylcellulose) (HPC)); 91 [9 of 10 alive], 102, 103, 152 % of control (dose: 25.0 mg/kg/injection, schedule: Q01DX009 (ip), vehicle: Klucel (hydroxypropylcellulose) (HPC)); 124, 125, 126, 128, 142 % of control under setting [8]; 108, 114, 116 [9 of 10 alive], 121, 134 % of control (dose: 100.0 mg/kg/injection, schedule: Q01DX009 (ip), vehicle: Klucel (hydroxypropylcellulose) (HPC)); 116, 134, 136, 164 % of control under setting [9]. For the same molecule, the survivor count is 7 of 10 under setting [9] and 4 of 10 under setting [7].
With `CC(=O)Nc1cscc1NC(C)=O`, the survivor count under setting [4] is reported as 10 of 10.
With `C=C1C(=O)OC2/C=C(\CO)CC/C=C(\CO)CC(OC(=O)C(C)C)C12` (centres undefined), the survivor count is reported as 7 of 7 (dose: 7.5 mg/kg/injection, schedule: Q01DX009 (ip), vehicle: Klucel (hydroxypropylcellulose) (HPC)); 7 of 7 (dose: 15.0 mg/kg/injection, schedule: Q01DX009 (ip), vehicle: Klucel (hydroxypropylcellulose) (HPC)); 6 of 7 (dose: 30.0 mg/kg/injection, schedule: Q01DX009 (ip), vehicle: Klucel (hydroxypropylcellulose) (HPC)).
For the molecule `CCCCC(=O)OCC1OC(n2cnc3c(=S)nc[nH]c32)C(OC(=O)CCCC)C1OC(=O)CCCC` (centres undefined), the survivor count under setting [4] was 10 of 10.
Turning to `COc1c(CNC(=O)CCl)cc2[nH]c(C)cc2c1CNC(=O)CCl`, the T/C under setting [8] is 132 % of control. For the same molecule, the survivor count is reported as 10 of 10 under setting [9] and 5 of 10 under setting [7].
`O=C1CN(CN2CCOCC2)C(=O)CN1CN1CCOCC1`: under setting [3], the survivor count is reported as 1 of 10.
In the case of `C=C(C(=O)O)C(N)C(=O)O` (centres undefined), under setting [6], the survivor count was 8 of 10.
For the molecule `CC(C)(O)/C=C/C(=O)[C@](C)(O)[C@H]1[C@H](O)C[C@@]2(C)[C@@H]3CC=C4[C@@H](C[C@H](O)C(=O)C4(C)C)[C@]3(C)C(=O)C[C@]12C`, the survivor count (dose: 2.0 mg/kg/injection, schedule: Q01DX009 (ip), vehicle: saline + Tween-80 + alcohol) is given as 3 of 10.
